From patent US20260184713A1, “KINASE INHIBITORS” (The United States of America, as represented by the …, priority 2022, published 2026)

Test system: panel of 370 human protein kinases
Assay: pan human kinome profiling (370 kinases)
Conditions: 2 μM; panel of 370 kinases

Cn1cnc(Br)c1C1=CN(c2ncnc3nc[nH]c23)CCS1 [Compound 1a, Aplithianine A1]
number of kinases totally inactive (<5% inhibition): 65 | number of kinases with >50% inhibition: 101
